In patent publication US8597920B2, “Class of Chloroflexi-like thermophilic cellulose degrading bacteria” (priority 2008, dated 2013):
At least one structure is not confirmed: it was looked up by name or label, or the drawing left a doubt.

How the values were obtained:
Test in all cases: Growth on sole energy sources (metabolism experiments)
Assay type in all cases: cell-based, thermophilic Chloroflexi-like bacteria
[1] = test system: Chloroflexus isolate T81; settings: aerobic, 60° C.; for Growth of T81 on sole energy source, FS3V: FS3V medium (pH 4.5), energy source 0.5 g/L
[2] = test system: Chloroflexus isolate T26; settings: aerobic, 60° C.; for Growth of T26 on sole energy source, AOM1: AOM1 medium (pH 6.5); for Growth of T26 on sole energy source, AOM1 / Growth of T26 on sole energy source, FS3V: energy source 0.5 g/L; for Growth of T26 on sole energy source, FS3V: FS3V medium (pH 4.5)
Experimental: (§1) Mineral salts medium FS3V, FeEDTA, Trace elements solution and AOM1 medium were prepared as for Example 1. Energy sources were added to both media prior to autoclaving (0.5 g/L), except where noted, via syringe filter.
(§2) Unless otherwise stated, the following growth conditions were used for all experiments; Chloroflexus strains were grown aerobically at 60° C. in capped 100 mL serum bottles containing 50 mL of medium and 50 mL air headspace. No CO2 was amended to the headspace. Medium was sterilised via autoclaving (121° C., 20 min). Fifty μL of culture was inoculated into 50 mL of sterile medium. Stock Chloroflexus strains were maintained in liquid culture on mannose and on carboxymethylcellulose (CMC), and on phytagel-based solid medium.
(§3) Growth experiments to determine growth using different energy sources were conducted using the basal media, AOM1 or FS3V. No yeast extract (YE) or vitamins were added as growth supplements to either medium in these series of experiments. […] Both the YE and vitamin mix were also tested as sole energy sources.
(§4) Sole energy sources were added at a concentration of (0.5 g/L). […] Yeast extract (Becton Dickinson, 211929), sodium pyruvate (Sigma, P2256), sodium citrate (Ajax Finechem, A467,) and sodium acetate (Sigma, S2881), were also tested as sole energy sources, along with the alcohols methanol (Merck, 1.06018), ethanol (Merck, 1.00983), 1-propanol (Merck, 1.01024), 2-propanol (Merck, 1.01040), pentanol (Sigma, 138975) and butanol (Sigma, 1.01988). A vitamin mix was tested as a sole energy source. The vitamin mixture contained (in 100 mg): 0.8 mg folic acid; 8 mg vitamin B1; 4 mg vitamin B2; 1 mg niacin; 10 mg niacinamide; 15 mg pantothenate; 15 mg pyridoxine; 5 mg cobalamin; 5 mg biotin; 15 mg choline; 15 mg inositol; 7 mg para-amino benzoic acid and was tested at 10 and 100 mg/L.
(§5) Experiments were inoculated using stock cultures of T81, T12 and T26 grown in a corresponding medium with a corresponding energy source type. For example, inoculum for testing growth on a cellulose-based compound was grown in the corresponding medium with a cellulose-based compound as an energy source. All energy sources were added at a concentration of 0.5 g/L prior to autoclave sterilisation, except for D-N-acetylglucosamine, D-(−)-fructose, sodium acetate, sodium citrate, sodium pyruvate, methanol, ethanol, 1-propanol, 2-propanol, pentanol and butanol which were added via filter sterilisation (0.22 μm pore size membrane syringe filter). Tests were conducted in triplicate with a sterile control.

[3] = test system: Chloroflexus isolate T12; settings: aerobic, 60° C.; for Growth of T12 on sole energy source, AOM1: AOM1 medium (pH 6.5); for Growth of T12 on sole energy source, AOM1 / Growth of T12 on sole energy source, FS3V: energy source 0.5 g/L; for Growth of T12 on sole energy source, FS3V: FS3V medium (pH 4.5)
Experimental: as §1, §2, §3, §4, §5

[4] = test system: Chloroflexus isolate T81; settings: AOM1 medium (pH 6.5); energy source 0.5 g/L; aerobic, 60° C.
Experimental: as §1, §2, §3, §4, §5

CC(C)O [2-propanol]
+: Growth of T81 on alcohol as sole energy source, FS3V ([1]; FS3V, alcohol 0.05% v/v) | Growth of T26 on alcohol as sole energy source, FS3V ([2]; FS3V, alcohol 0.05% v/v) | Growth of T12 on alcohol as sole energy source, FS3V ([3]; FS3V, alcohol 0.05% v/v)

C[C@@H]1O[C@@H](O)[C@H](O)[C@H](O)[C@H]1O.O [L-rhammnose monohydrate]
−: Growth of T12 on sole energy source, AOM1 [3]
+: Growth of T81 on sole energy source, FS3V [1] | Growth of T81 on sole energy source, AOM1 [4] | Growth of T26 on sole energy source, AOM1 ([2]; monohydrate) | Growth of T26 on sole energy source, FS3V [2] | Growth of T12 on sole energy source, FS3V [3]

OC[C@H]1O[C@@H](O[C@H]2[C@H](O)[C@@H](O)[C@H](O)O[C@@H]2CO)[C@H](O)[C@@H](O)[C@@H]1O [D-(+)-cellobiose]
+: Growth of T81 on sole energy source, FS3V [1] | Growth of T81 on sole energy source, AOM1 [4] | Growth of T26 on sole energy source, AOM1 [2] | Growth of T26 on sole energy source, FS3V [2] | Growth of T12 on sole energy source, FS3V [3]
−: Growth of T12 on sole energy source, AOM1 [3]

OC[C@H]1O[C@H](O[C@H]2O[C@H](CO)[C@@H](O)[C@H](O)[C@H]2O)[C@H](O)[C@@H](O)[C@@H]1O [D-(+)-trehalose]
+: Growth of T81 on sole energy source, FS3V [1] | Growth of T81 on sole energy source, AOM1 [4] | Growth of T26 on sole energy source, FS3V [2] | Growth of T12 on sole energy source, FS3V [3]
−: Growth of T26 on sole energy source, AOM1 [2] | Growth of T12 on sole energy source, AOM1 [3]

OC[C@H]1O[C@H](O[C@H]2[C@H](O)[C@@H](O)[C@H](O)O[C@@H]2CO)[C@H](O)[C@@H](O)[C@@H]1O [D-(+)-maltose]
−: Growth of T26 on sole energy source, AOM1 [2] | Growth of T12 on sole energy source, AOM1 [3]
+: Growth of T81 on sole energy source, FS3V [1] | Growth of T81 on sole energy source, AOM1 [4] | Growth of T26 on sole energy source, FS3V [2] | Growth of T12 on sole energy source, FS3V [3]
